From the supplement of paper PMC8728848
Some of the results follow.

Columns and labels:
Experiment in all cases: glycan array binding signal (z-score within array); higher = stronger binding
Conditions in all cases: glycan notation: IUPAC condensed, linker removed
[1] = biological target: GlcNAc(b1-4)GlcNAc(b1-4)GlcNAc(b1-4)GlcNAc(b1-4)GlcNAc(b1-4)GlcNAc
How it was run: (§1)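 The Consortium for Functional Glycomics database supplied 3228 glycan arrays, of which those lacking an available protein sequence were dropped. The binding signal, a within-array Z-score, was averaged across arrays of the same protein sequence and across linkers. Negative scores can be read as non-binding.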

[2] = biological target: GlcNAc(b1-4)[GlcNAc(b1-6)]GalNAc
How it was run: as §1

[3] = biological target: GlcNAc(b1-6)Gal(b1-4)GlcNAc
How it was run: as §1

[4] = biological target: GlcNAc(b1-6)GalNAc
How it was run: as §1

[5] = biological target: GlcNAc6S(b1-3)Gal(b1-4)GlcNAc
How it was run: as §1

[6] = biological target: Kdn(a2-3)Gal(b1-3)GalNAc
How it was run: as §1

[7] = biological target: Kdn(a2-3)Gal(b1-3)GlcNAc
How it was run: as §1

[8] = biological target: Kdn(a2-3)Gal(b1-4)Glc
How it was run: as §1

[9] = biological target: Kdn(a2-3)Gal(b1-4)GlcNAc
How it was run: as §1

[10] = biological target: Kdn(a2-3)Gal(b1-4)[Fuc(a1-3)]GlcNAc
How it was run: as §1

[11] = biological target: Kdn(a2-6)Gal(b1-4)GlcNAc
How it was run: as §1

[12] = biological target: Man(a1-2)Man(a1-2)Man(a1-3)Man
How it was run: as §1

[13] = biological target: Man(a1-2)Man(a1-2)Man(a1-6)[Man(a1-3)]Man
How it was run: as §1

[14] = biological target: Man(a1-2)Man(a1-3)Man
How it was run: as §1

[15] = biological target: Man(a1-2)Man(a1-3)[Man(a1-2)Man(a1-6)]Man
How it was run: as §1

[16] = biological target: Man(a1-2)Man(a1-3)[Man(a1-2)Man(a1-6)]Man(a1-6)[Man(a1-2)Man(a1-2)Man(a1-3)]Man
How it was run: as §1

[17] = biological target: Man(a1-2)Man(a1-3)[Man(a1-2)Man(a1-6)]Man(a1-6)[Man(a1-2)Man(a1-2)Man(a1-3)]Man(b1-4)GlcNAc(b1-4)GlcNAc
How it was run: as §1

[18] = biological target: Man(a1-2)Man(a1-3)[Man(a1-6)]Man(a1-6)[Man(a1-2)Man(a1-3)]Man(b1-4)GlcNAc(b1-4)GlcNAc
How it was run: as §1

[19] = biological target: Man(a1-2)Man(a1-6)[Man(a1-3)]Man(a1-6)[Man(a1-2)Man(a1-2)Man(a1-3)]Man
How it was run: as §1

[20] = biological target: Man(a1-2)Man(a1-6)[Man(a1-3)]Man(a1-6)[Man(a1-2)Man(a1-2)Man(a1-3)]Man(b1-4)GlcNAc(b1-4)GlcNAc
How it was run: as §1

[21] = biological target: Man(a1-3)[Man(a1-6)]Man
How it was run: as §1

[22] = biological target: Man(a1-3)[Man(a1-6)]Man(a1-6)[Man(a1-2)Man(a1-3)]Man(b1-4)GlcNAc(b1-4)GlcNAc
How it was run: as §1

[23] = biological target: Man(a1-3)[Man(a1-6)]Man(a1-6)[Man(a1-3)]Man
How it was run: as §1

[24] = biological target: Man(a1-3)[Man(a1-6)]Man(a1-6)[Man(a1-3)]Man(b1-4)GlcNAc(b1-4)GlcNAc
How it was run: as §1

[25] = biological target: Man(a1-3)[Man(a1-6)]Man(b1-4)GlcNAc(b1-4)GlcNAc
How it was run: as §1

[26] = biological target: Man(a1-3)[Man(a1-6)]Man(b1-4)GlcNAc(b1-4)[Fuc(a1-6)]GlcNAc
How it was run: as §1

[27] = biological target: Man(a1-6)Man
How it was run: as §1

[28] = biological target: Man(b1-4)GlcNAc
How it was run: as §1

[29] = biological target: MurNAc(b1-4)GlcNAc
How it was run: as §1

[30] = biological target: Neu5Ac(a2-3)Gal
How it was run: as §1

[31] = biological target: Neu5Ac(a2-3)Gal(b1-3)GalNAc
How it was run: as §1

[32] = biological target: Neu5Ac(a2-3)Gal(b1-3)GalNAc(b1-3)Gal(a1-4)Gal(b1-4)Glc
How it was run: as §1

[33] = biological target: Neu5Ac(a2-3)Gal(b1-3)GalNAc(b1-4)[Neu5Ac(a2-3)]Gal(b1-4)Glc
How it was run: as §1

[34] = biological target: Neu5Ac(a2-3)Gal(b1-3)GalNAc(b1-4)[Neu5Ac(a2-8)Neu5Ac(a2-3)]Gal(b1-4)Glc
How it was run: as §1

[35] = biological target: Neu5Ac(a2-3)Gal(b1-3)GalNAc6S
How it was run: as §1

[36] = biological target: Neu5Ac(a2-3)Gal(b1-3)GlcNAc
How it was run: as §1

[37] = biological target: Neu5Ac(a2-3)Gal(b1-3)GlcNAc(b1-2)Man
How it was run: as §1

B1: SspB A3vp1 (Streptococcus gordonii), Q54186 (protein)
chain: MTNEADYQAKLAAYQTELARVQKANADAKATYEKAVEDNKAKNAAIKAENEEIKQRNAVAKTDYEAKLAKYEADLAKYKKEFAAYTAALAEAESKKKQDGYLSEPRSQSLNFKSEPNAIRTIDSSVHQYGQQELDALVKSWGISPTNPDRKKSRAYSYFNAINSNNTYAKLVLEKDKPVDVTYTGLKNSSFNGKKISKVVYTYTLKETGFNDGTKMTMFASSDPTVTAWYNDYFTSTNINVKVKFYDEEGQLMNLTGGLVNFSSLNRGNGSGAIDKDAIESVRNFNGRYIPISGSSIKIHENNSAYADSSNAEKSLGARWNTSEWDTTSSPNNWYGAIVGEITQSEISFNMASSKSGNIWFAFNSNINAIGVPTKPVAPTAPTQPMYETEKPLEPAPVAPSYENEPTPPVKTPDQPEPSKPAAALEHHHHHH
glycan array binding signal (z-score) [1]: -1.04
glycan array binding signal (z-score) [2]: -0.89
glycan array binding signal (z-score) [3]: 0.555
glycan array binding signal (z-score) [4]: 0.064
glycan array binding signal (z-score) [5]: 0.424
glycan array binding signal (z-score) [6]: 0.874
glycan array binding signal (z-score) [7]: -0.933
glycan array binding signal (z-score) [8]: 1.1
glycan array binding signal (z-score) [9]: -0.659
glycan array binding signal (z-score) [10]: 1.01
glycan array binding signal (z-score) [11]: 0.128
glycan array binding signal (z-score) [12]: -0.389
glycan array binding signal (z-score) [13]: -0.421
glycan array binding signal (z-score) [14]: -0.953
glycan array binding signal (z-score) [15]: -0.889
glycan array binding signal (z-score) [16]: -0.554
glycan array binding signal (z-score) [17]: 0.39
glycan array binding signal (z-score) [18]: -0.444
glycan array binding signal (z-score) [19]: -0.366
glycan array binding signal (z-score) [20]: -0.444
glycan array binding signal (z-score) [21]: -0.769
glycan array binding signal (z-score) [22]: 0.818
glycan array binding signal (z-score) [23]: -0.128
glycan array binding signal (z-score) [24]: 0.611
glycan array binding signal (z-score) [25]: -0.826
glycan array binding signal (z-score) [26]: -0.528
glycan array binding signal (z-score) [27]: -0.025
glycan array binding signal (z-score) [28]: -0.983
glycan array binding signal (z-score) [29]: -0.658
glycan array binding signal (z-score) [30]: -0.167
glycan array binding signal (z-score) [31]: -1.1
glycan array binding signal (z-score) [32]: -0.496
glycan array binding signal (z-score) [33]: 0.149
glycan array binding signal (z-score) [34]: 0.141
glycan array binding signal (z-score) [35]: -0.287
glycan array binding signal (z-score) [36]: -0.907
glycan array binding signal (z-score) [37]: 0.479
